Measured values as given in paper doi:10.1101/2023.11.29.569073.
Results are given in words; binding and its absence hold for the method and conditions named. In cells and extracts the contact can be indirect. Here binding means that the protein was enriched with, or labelled near, the bait; the list need not be complete. Sequences can lack the tags named with a protein.

Protein sequences, listed by entry. Tags and fused reporters are not part of them.
UniProt Q9FIJ0: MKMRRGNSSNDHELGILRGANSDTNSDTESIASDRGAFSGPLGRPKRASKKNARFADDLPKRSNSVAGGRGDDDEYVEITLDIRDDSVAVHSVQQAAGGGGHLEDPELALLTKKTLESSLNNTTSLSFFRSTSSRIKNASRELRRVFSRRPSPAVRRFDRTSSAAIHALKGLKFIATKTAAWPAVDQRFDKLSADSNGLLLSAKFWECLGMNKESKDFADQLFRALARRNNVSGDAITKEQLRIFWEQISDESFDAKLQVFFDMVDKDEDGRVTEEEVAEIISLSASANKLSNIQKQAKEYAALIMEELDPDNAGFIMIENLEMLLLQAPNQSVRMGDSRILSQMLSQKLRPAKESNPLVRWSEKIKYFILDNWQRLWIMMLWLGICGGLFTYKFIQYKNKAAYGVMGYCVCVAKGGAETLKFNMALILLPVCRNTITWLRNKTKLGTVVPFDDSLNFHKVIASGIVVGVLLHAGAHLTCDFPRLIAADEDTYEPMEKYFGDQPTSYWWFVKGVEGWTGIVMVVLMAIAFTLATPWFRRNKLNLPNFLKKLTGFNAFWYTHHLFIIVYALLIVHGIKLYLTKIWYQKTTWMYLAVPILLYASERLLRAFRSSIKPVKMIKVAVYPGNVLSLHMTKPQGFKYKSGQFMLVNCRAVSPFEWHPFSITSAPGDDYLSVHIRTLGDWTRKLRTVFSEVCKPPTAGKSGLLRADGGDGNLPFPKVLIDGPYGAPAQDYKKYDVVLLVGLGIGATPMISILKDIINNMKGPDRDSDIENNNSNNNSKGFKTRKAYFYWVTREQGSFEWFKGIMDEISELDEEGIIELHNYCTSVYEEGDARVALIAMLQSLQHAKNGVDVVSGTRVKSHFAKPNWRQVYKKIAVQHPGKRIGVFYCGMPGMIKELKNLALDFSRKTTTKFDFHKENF

Target: T1, CPK28-YFP (calcium-dependent protein kinase CPK28 C-terminally tagged with yellow fluorescent protein) (Arabidopsis thaliana) (UniProt Q9FKW4)
T1 sequence: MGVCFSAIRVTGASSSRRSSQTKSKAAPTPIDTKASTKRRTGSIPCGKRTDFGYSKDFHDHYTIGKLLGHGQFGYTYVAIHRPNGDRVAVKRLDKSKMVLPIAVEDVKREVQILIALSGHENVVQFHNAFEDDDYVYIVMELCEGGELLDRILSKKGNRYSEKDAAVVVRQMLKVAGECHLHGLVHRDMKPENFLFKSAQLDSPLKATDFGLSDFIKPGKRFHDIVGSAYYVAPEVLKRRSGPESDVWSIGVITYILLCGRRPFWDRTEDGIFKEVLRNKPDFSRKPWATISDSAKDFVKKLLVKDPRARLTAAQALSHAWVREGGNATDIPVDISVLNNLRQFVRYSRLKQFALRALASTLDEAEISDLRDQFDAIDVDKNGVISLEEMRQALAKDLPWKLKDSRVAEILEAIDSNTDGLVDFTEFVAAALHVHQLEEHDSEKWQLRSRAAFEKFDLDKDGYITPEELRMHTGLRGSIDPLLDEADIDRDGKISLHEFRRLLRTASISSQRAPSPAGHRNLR
Test: affinity purification with mass spectrometry

## BRASSINOSTEROID … KINASE 1 (BSK1) (from UniProt Q944A7 1-512) (enzyme)
  binding: binds

## HERCULES RECEPTOR KINASE 4 (HERK4)
  binding: binds

## MAZZA (MAZ/CARK5) (enzyme)
  binding: binds

## MEDOS 1 (MDS1) (receptor)
  binding: binds

## MIXED LINEAGE KINASE/RAF-RELATED KINASE 1 (MRK1), endogenous (enzyme)
  binding: binds

## NADPH oxidase RESPIRATORY OXIDASE HOMOLOG D (RBOHD) (from UniProt Q9FIJ0 1-921) (enzyme)
  binding: binds

## NEMATODE-INDUCED LRR-RLK 2 (NILR2) (from UniProt F4HRH4) (receptor)
  binding: binds

## calmodulin
  binding: binds

B1: PROLINE-RICH EXTENSIN-LIKE KINASE 1 (PERK1) (enzyme, UniProt Q9LV48 1-652)
chain: MSTAPSPGTTPSPSPPSPPTNSTTTTPPPAASSPPPTTTPSSPPPSPSTNSTSPPPSSPLPPSLPPPSPPGSLTPPLPQPSPSAPITPSPPSPTTPSNPRSPPSPNQGPPNTPSGSTPRTPSNTKPSPPSDSSDGLSTGVVVGIAIGGVAILVILTLICLLCKKKRRRRHDDEAAYYVPPPPPSGPKAGGPYGGQQQYWQQQNASRPSDNHVVTSLPPPKPPSPPRKPPPPPPPPAFMSSSGGSDYSDLPVLPPPSPGLVLGFSKSTFTYEELSRATNGFSEANLLGQGGFGYVHKGILPSGKEVAVKQLKAGSGQGEREFQAEVEIISRVHHRHLVSLIGYCMAGVQRLLVYEFVPNNNLEFHLHGKGRPTMEWSTRLKIALGSAKGLSYLHEDCNPKIIHRDIKASNILIDFKFEAKVADFGLAKIASDTNTHVSTRVMGTFGYLAPEYAASGKLTEKSDVFSFGVVLLELITGRRPVDANNVYVDDSLVDWARPLLNRASEEGDFEGLADSKMGNEYDREEMARMVACAAACVRHSARRRPRMSQIVRALEGNVSLSDLNEGMRPGHSNVYSSYGGSTDYDTSQYNDDMIKFRKMALGTQEYGTTGEYSNPTSDYGLYPSGSSSEGQATREMEMGKIKKTGQGYSGPSL
  binding: binds

B2: WAK2 (receptor, UniProt Q9LMP1 24-732)
chain: QPRKECQTRCGNVAVEYPFGTSPGCYYPGDESFNLTCNEQEKLFFGNMPVINMSLSGQLRVRLVRSRVCYDSQGKQTDYIAQRTTLGNFTLSELNRFTVVGCNSYAFLRTSGVEKYSTGCISICDSATTKNGSCSGEGCCQIPVPRGYSFVRVKPHSFHNHPTVHLFNPCTYAFLVEDGMFDFHALEDLNNLRNVTTFPVVLDWSIGDKTCKQVEYRGVCGGNSTCFDSTGGTGYNCKCLEGFEGNPYLPNGCQDINECISSRHNCSEHSTCENTKGSFNCNCPSGYRKDSLNSCTRKVRPEYFRWTQIFLGTTIGFSVIMLGISCLQQKIKHRKNTELRQKFFEQNGGGMLIQRVSGAGPSNVDVKIFTEKGMKEATNGYHESRILGQGGQGTVYKGILPDNSIVAIKKARLGNRSQVEQFINEVLVLSQINHRNVVKVLGCCLETEVPLLVYEFINSGTLFDHLHGSLYDSSLTWEHRLRIATEVAGSLAYLHSSASIPIIHRDIKTANILLDKNLTAKVADFGASRLIPMDKEQLTTIVQGTLGYLDPEYYNTGLLNEKSDVYSFGVVLMELLSGQKALCFERPHCPKNLVSCFASATKNNRFHEIIDGQVMNEDNQREIQEAARIAAECTRLMGEERPRMKEVAAELEALRVKTTKYKWSDQYRETGEIEHLLGVQILSAQGETSSSIGYDSIRNVTTLDIEAGR
  binding: binds

B3: CYTOSOLIC ABA RECEPTOR KINASE 7 (CARK7) (enzyme, UniProt Q8H1G6 1-361)
chain: MRKWICCTCQIEDSNEEQQLKSSQQQSDANHKNSKPAPVAKHEVKKEALPIEVPPLSLDEVKEKTENFGSKALIGEGSYGRVYYATLNDGVAVALKKLDVAPEAETDTEFLSQVSMVSRLKHENLIQLLGFCVDGNLRVLAYEFATMGSLHDILHGRKGVQGAQPGPTLDWITRVKIAVEAARGLEYLHEKSQPPVIHRDIRSSNVLLFEDYKAKIADFNLSNQAPDNAARLHSTRVLGTFGYHAPEYAMTGQLTQKSDVYSFGVVLLELLTGRKPVDHTMPRGQQSLVTWATPRLSEDKVKQCIDPKLKADYPPKAVAKLAAVAALCVQYEAEFRPNMSIVVKALQPLLKPPAAAPAPES
  binding: binds
